Data as given in PubChem BioAssay AID686938 (Drosophila RNAi Screening Center, 2013).
Purpose: 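Fly genes required for calcium entry once internal stores are emptied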 (primary screen). Cell system: Drosophila S2R+ cells. Reagents: long dsRNA against Drosophila genes, about 0.25 µg dsRNA per well, roughly 10,000 cells. Time to read-out: 5 days of knock-down before the calcium assay. Conditions: thapsigargin (SERCA pump blocker) to empty calcium stores; entry signal taken 4 min after adding it. Measurement: 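Per-well fluo-4 fluorescence in two replicates, unnormalised, measured in resting cells and 4 min after store depletion by the SERCA blocker thapsigargin; ratio of the two present in few wells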. Direction: calcium entry signal: higher = stronger calcium signal after store depletion; entry to resting ratio: higher = more calcium entry relative to resting level; resting calcium signal: higher = higher resting calcium signal. Active means: 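Hit if the duplicate-averaged plate z-score for entry over resting signal is under −3; wells with weak total dye signal (Fmax z < −2) or more than 5 off-targets removed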. Calls: active = strongly reduced calcium entry; inactive = no strong reduction.
In all, the deposit lists about 23,000 reagents; shown is a random part of those with a known target gene and a result. Of all reagents, 75 (0.33%) got an active call. 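Raw plate signals without normalisation; calls rest on plate z-scores that were not deposited; ratio present for only 364 wells.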 Reagents against one gene are numbered here. A plus sign joins genes that one reagent is predicted to hit. Reagent sequences are not shown. Not stated in the record: the dose of the treatment.

Gene | reagent no. | calcium entry signal, replicate 1 (fluorescence units) | calcium entry signal, replicate 2 (fluorescence units) | entry to resting ratio | resting calcium signal, replicate 1 (fluorescence units) | resting calcium signal, replicate 2 (fluorescence units) | Outcome
CG42232 | 1 | 2.88e7 | 2.85e7 | – | 1.37e7 | 1.17e7 | inactive
CG42232 | 2 | 3.02e7 | 2.97e7 | – | 1.40e7 | 1.31e7 | inactive
14-3-3epsilon | 1 | 3.30e7 | 3.29e7 | – | 4.90e7 | 1.60e7 | inactive
lncRNA:CR43334 | 1 | 4.24e7 | 4.04e7 | – | 2.26e7 | 1.93e7 | inactive
lncRNA:CR43334 | 2 | 4.65e7 | 4.31e7 | – | 2.43e7 | 1.97e7 | inactive
SmydA-4 | 1 | 3.98e7 | 4.50e7 | – | 1.84e7 | 2.43e7 | inactive
SmydA-4 | 2 | 1.81e7 | 3.16e7 | – | 1.02e7 | 1.66e7 | inactive
CG13627 | 1 | 2.80e7 | 4.09e7 | – | 1.67e7 | 1.66e7 | inactive
Phf7 | 1 | 4.85e7 | 4.21e7 | – | 2.29e7 | 2.01e7 | inactive
mud | 1 | 2.62e7 | 5.23e7 | – | 1.49e7 | 2.92e7 | inactive
I-2 | 1 | 1.96e7 | 2.92e7 | – | 1.15e7 | 1.36e7 | inactive
I-2 | 2 | 3.64e7 | 3.18e7 | – | 1.60e7 | 1.43e7 | inactive
Dro | 1 | 3.58e7 | 2.95e7 | – | 1.71e7 | 1.44e7 | inactive
CG14687 | 1 | 3.26e7 | 2.69e7 | – | 1.76e7 | 1.48e7 | inactive
CG14258 | 1 | 3.32e7 | 4.86e7 | – | 1.77e7 | 2.16e7 | inactive
CG17193 | 1 | 2.08e7 | 3.11e7 | – | 2.96e7 | 1.33e7 | inactive
CG8945 | 1 | 3.74e7 | 3.39e7 | – | 2.06e7 | 1.58e7 | inactive
CG8945 | 2 | 3.86e7 | 3.40e7 | – | 2.07e7 | 1.57e7 | inactive
Diedel3 | 1 | 5.61e7 | 4.58e7 | – | 2.70e7 | 1.86e7 | inactive
CG43244 | 1 | 5.04e7 | 4.50e7 | – | 2.17e7 | 1.94e7 | inactive
CG31528 | 1 | 4.04e7 | 2.75e7 | – | 2.32e7 | 1.44e7 | inactive
Polr1E | 1 | 3.95e7 | 4.10e7 | – | 5.99e7 | 1.97e7 | inactive
Polr1E | 2 | 5.03e7 | 3.78e7 | – | 2.48e7 | 1.67e7 | inactive
pyr | 1 | 3.86e7 | 4.74e7 | – | 2.03e7 | 2.26e7 | inactive
pyr | 2 | 2.02e7 | 1.83e7 | – | 1.09e7 | 8.53e6 | inactive
AANATL3 | 1 | 3.41e7 | 4.15e7 | – | 1.79e7 | 1.89e7 | inactive
miple2 | 1 | 4.18e7 | 4.95e7 | – | 2.15e7 | 2.22e7 | inactive
CG4053 | 1 | 3.83e7 | 3.52e7 | – | 1.86e7 | 1.73e7 | inactive
Met75Ca + Met75Cb | 1 | 4.57e7 | 3.36e7 | – | 2.21e7 | 1.74e7 | inactive
Met75Ca + Met75Cb | 2 | 3.40e7 | 5.13e7 | – | 1.78e7 | 1.92e7 | inactive
CG9799 | 1 | 2.46e7 | 3.48e7 | – | 1.13e7 | 1.77e7 | inactive
omd | 1 | 2.01e7 | 2.54e7 | – | 1.04e7 | 1.35e7 | inactive
superdeath | 1 | 6.20e7 | 2.85e7 | – | 2.91e7 | 1.59e7 | inactive
Ufc1 | 1 | 3.38e7 | 2.38e7 | – | 1.59e7 | 1.25e7 | inactive
RanGAP | 1 | 2.15e7 | 4.03e7 | – | 1.10e7 | 1.99e7 | inactive
CG5180 | 1 | 3.26e7 | 4.12e7 | – | 4.28e7 | 1.71e7 | inactive
CG15756 | 1 | 3.43e7 | 3.94e7 | – | 1.63e7 | 1.76e7 | inactive
CG5348 | 1 | 3.96e7 | 5.01e7 | – | 1.78e7 | 2.42e7 | inactive
CG32369 | 1 | 3.49e7 | 4.27e7 | – | 1.82e7 | 2.20e7 | inactive
CG32369 | 2 | 5.28e7 | 4.27e7 | – | 3.66e7 | 1.87e7 | inactive
CG3640 | 1 | 4.59e7 | 4.27e7 | – | 2.22e7 | 2.06e7 | inactive
CG30495 | 1 | 4.58e7 | 4.09e7 | – | 2.13e7 | 1.72e7 | inactive
CG18467 | 1 | 4.04e7 | 3.78e7 | – | 1.69e7 | 1.73e7 | inactive
CG15554 | 1 | 4.64e7 | 6.13e7 | – | 2.30e7 | 2.50e7 | inactive
CG10428 | 1 | 4.23e7 | – | – | 1.95e7 | – | inactive
CG7213 | 1 | 2.13e7 | 5.25e7 | – | 1.05e7 | 2.26e7 | inactive
vlc | 1 | 3.86e7 | 4.75e7 | – | 2.03e7 | 2.00e7 | inactive
FAM21 | 1 | 3.68e7 | 3.86e7 | – | 1.79e7 | 1.93e7 | inactive
kl-2 | 1 | 4.55e7 | 4.97e7 | – | 2.20e7 | 1.90e7 | inactive
eIF4A | 1 | 1.58e7 | 1.79e7 | – | 9.78e6 | 1.10e7 | inactive
CG1638 | 1 | 2.11e7 | 3.21e7 | 1.8 | 1.16e7 | 1.30e7 | inactive
TotC | 1 | 4.13e7 | 4.09e7 | – | 2.18e7 | 1.86e7 | inactive
CG7304 | 1 | 3.51e7 | 5.12e7 | – | 1.76e7 | 2.22e7 | inactive
Ir7g | 1 | 2.96e7 | 3.52e7 | – | 1.53e7 | 1.56e7 | inactive
CG7920 | 1 | 5.02e7 | 5.32e7 | – | 2.19e7 | 2.37e7 | inactive
CG7920 | 2 | 2.83e7 | 3.09e7 | – | 1.51e7 | 1.46e7 | inactive
Rdh | 1 | 3.92e7 | 4.65e7 | – | 2.08e7 | 2.20e7 | inactive
Rdh | 2 | 2.61e7 | 2.86e7 | – | 1.67e7 | 1.66e7 | inactive
VhaAC39-1 | 1 | 4.07e7 | 4.75e7 | – | 2.06e7 | 2.52e7 | inactive
lncRNA:mimi | 1 | 4.47e7 | 3.43e7 | – | 2.48e7 | 1.65e7 | inactive
CG34204 | 1 | 2.05e7 | 3.91e7 | – | 9.51e6 | 1.52e7 | inactive
CG12535 | 1 | 4.63e7 | 5.59e7 | 2.1 | 2.17e7 | 2.29e7 | inactive
LanB1 | 1 | 4.51e7 | – | – | 2.42e7 | – | inactive
CG7049 | 1 | 4.56e7 | 3.87e7 | – | 2.20e7 | 1.97e7 | inactive
Hdc | 1 | 4.71e7 | 4.41e7 | – | 1.95e7 | 1.95e7 | inactive
CR11386 + CR33222 | 1 | 2.13e7 | 3.99e7 | – | 1.17e7 | 1.85e7 | inactive
insc | 1 | 5.28e7 | 5.23e7 | – | 2.57e7 | 2.37e7 | inactive
MAN1 | 1 | 3.80e7 | – | – | 1.91e7 | – | inactive
Su(var)3-7 | 1 | 2.74e7 | 3.72e7 | – | 1.41e7 | 5.62e7 | inactive
inaE | 1 | 1.97e7 | 2.71e7 | – | 1.11e7 | 1.24e7 | inactive
inaE | 2 | 2.15e7 | 3.16e7 | – | 1.05e7 | 1.48e7 | inactive
inaE | 3 | 1.60e7 | 4.04e7 | – | 9.84e6 | 1.98e7 | inactive
inaE | 4 | 2.40e7 | 2.48e7 | – | 1.33e7 | 1.12e7 | inactive
CG10237 | 1 | 5.39e7 | – | – | 2.55e7 | – | inactive
Raf | 1 | 3.74e7 | 3.73e7 | 2 | 1.89e7 | 1.74e7 | inactive
Raf | 2 | 3.58e7 | 3.48e7 | – | 1.80e7 | 1.71e7 | inactive

Laid out differently: results already given
Gene	reagent no.	calcium entry signal, replicate 1 (fluorescence units)	calcium entry signal, replicate 2 (fluorescence units)	entry to resting ratio	resting calcium signal, replicate 1 (fluorescence units)	resting calcium signal, replicate 2 (fluorescence units)	Outcome
CG1638	1	2.11e7	3.21e7	1.8	1.16e7	1.30e7	inactive
TotC	1	4.13e7	4.09e7		2.18e7	1.86e7	inactive
CG7304	1	3.51e7	5.12e7		1.76e7	2.22e7	inactive
Ir7g	1	2.96e7	3.52e7		1.53e7	1.56e7	inactive
CG7920	1	5.02e7	5.32e7		2.19e7	2.37e7	inactive
CG7920	2	2.83e7	3.09e7		1.51e7	1.46e7	inactive
Rdh	1	3.92e7	4.65e7		2.08e7	2.20e7	inactive
Rdh	2	2.61e7	2.86e7		1.67e7	1.66e7	inactive
VhaAC39-1	1	4.07e7	4.75e7		2.06e7	2.52e7	inactive
lncRNA:mimi	1	4.47e7	3.43e7		2.48e7	1.65e7	inactive
CG34204	1	2.05e7	3.91e7		9.51e6	1.52e7	inactive
